Experimental data: the supplement of paper PMC12067093, “Discovery and optimisation of a covalent ligand for TRIM25 and its application to targeted protein ubiquitination” (Chemical Science, 2025)
The other results are listed elsewhere or left out.

Protein sequences, listed by entry. Tags and fused reporters are not part of them. Lines headed by an entry give the natural chain unless they say otherwise; changes in a name come on top.
UniProt O95159: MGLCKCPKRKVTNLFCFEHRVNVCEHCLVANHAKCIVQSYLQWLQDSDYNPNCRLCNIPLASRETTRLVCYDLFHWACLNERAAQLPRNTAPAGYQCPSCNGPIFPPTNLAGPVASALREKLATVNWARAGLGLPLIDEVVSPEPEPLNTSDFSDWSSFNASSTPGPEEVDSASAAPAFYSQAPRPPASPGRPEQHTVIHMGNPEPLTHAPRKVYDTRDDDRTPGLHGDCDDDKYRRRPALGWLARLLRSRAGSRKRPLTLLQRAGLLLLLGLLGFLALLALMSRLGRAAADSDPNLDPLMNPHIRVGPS
UniProt Q9BQ24: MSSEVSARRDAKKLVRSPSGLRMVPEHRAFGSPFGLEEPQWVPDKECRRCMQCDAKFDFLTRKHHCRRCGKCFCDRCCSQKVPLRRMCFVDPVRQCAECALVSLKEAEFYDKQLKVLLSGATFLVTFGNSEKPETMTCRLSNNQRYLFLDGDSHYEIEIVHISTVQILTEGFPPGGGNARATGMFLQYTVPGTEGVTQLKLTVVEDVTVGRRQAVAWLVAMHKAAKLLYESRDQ
UniProt Q5VV52: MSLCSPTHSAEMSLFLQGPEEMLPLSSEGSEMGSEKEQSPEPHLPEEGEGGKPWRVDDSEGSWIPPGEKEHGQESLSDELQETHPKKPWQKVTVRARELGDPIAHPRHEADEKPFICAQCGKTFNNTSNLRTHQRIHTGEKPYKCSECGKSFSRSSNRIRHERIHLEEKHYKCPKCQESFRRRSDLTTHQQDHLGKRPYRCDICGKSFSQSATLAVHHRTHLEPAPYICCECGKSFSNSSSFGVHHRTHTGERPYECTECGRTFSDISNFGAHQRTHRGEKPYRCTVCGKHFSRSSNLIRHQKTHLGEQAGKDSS
UniProt Q9UBW7: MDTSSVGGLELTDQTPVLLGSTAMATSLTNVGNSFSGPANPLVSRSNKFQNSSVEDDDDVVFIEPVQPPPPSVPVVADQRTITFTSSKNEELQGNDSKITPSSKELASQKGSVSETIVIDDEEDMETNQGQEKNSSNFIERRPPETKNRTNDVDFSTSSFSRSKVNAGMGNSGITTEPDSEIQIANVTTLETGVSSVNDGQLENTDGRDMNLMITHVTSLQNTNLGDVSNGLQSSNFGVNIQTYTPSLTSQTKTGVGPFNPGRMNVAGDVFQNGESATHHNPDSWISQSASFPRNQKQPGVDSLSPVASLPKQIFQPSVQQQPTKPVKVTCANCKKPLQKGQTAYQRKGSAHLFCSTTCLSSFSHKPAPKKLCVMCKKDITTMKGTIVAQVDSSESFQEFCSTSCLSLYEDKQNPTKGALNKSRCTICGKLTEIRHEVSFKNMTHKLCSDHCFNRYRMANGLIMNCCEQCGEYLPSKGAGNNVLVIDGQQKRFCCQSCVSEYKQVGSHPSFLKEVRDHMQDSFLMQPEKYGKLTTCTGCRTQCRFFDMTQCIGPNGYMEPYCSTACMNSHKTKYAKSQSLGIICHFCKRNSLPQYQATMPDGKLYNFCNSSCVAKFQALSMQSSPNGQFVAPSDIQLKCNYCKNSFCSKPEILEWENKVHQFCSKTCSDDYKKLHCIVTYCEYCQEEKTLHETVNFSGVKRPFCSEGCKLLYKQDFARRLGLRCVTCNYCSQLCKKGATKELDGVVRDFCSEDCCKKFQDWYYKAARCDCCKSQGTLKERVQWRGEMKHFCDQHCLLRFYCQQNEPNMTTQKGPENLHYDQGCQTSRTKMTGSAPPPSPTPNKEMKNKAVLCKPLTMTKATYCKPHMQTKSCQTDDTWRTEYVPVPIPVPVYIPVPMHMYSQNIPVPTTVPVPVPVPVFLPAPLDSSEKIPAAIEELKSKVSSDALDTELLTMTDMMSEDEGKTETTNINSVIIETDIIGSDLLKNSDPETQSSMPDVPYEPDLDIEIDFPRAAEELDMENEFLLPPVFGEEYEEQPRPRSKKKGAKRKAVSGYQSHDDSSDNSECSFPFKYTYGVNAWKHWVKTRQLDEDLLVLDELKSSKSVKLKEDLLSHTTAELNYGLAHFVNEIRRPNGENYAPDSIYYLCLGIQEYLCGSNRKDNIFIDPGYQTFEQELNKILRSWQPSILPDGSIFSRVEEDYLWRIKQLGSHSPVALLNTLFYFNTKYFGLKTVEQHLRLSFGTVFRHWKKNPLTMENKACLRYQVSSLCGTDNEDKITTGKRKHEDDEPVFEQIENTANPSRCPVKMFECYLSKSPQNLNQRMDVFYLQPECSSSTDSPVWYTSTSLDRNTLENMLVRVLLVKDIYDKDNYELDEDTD
UniProt Q5VUA4: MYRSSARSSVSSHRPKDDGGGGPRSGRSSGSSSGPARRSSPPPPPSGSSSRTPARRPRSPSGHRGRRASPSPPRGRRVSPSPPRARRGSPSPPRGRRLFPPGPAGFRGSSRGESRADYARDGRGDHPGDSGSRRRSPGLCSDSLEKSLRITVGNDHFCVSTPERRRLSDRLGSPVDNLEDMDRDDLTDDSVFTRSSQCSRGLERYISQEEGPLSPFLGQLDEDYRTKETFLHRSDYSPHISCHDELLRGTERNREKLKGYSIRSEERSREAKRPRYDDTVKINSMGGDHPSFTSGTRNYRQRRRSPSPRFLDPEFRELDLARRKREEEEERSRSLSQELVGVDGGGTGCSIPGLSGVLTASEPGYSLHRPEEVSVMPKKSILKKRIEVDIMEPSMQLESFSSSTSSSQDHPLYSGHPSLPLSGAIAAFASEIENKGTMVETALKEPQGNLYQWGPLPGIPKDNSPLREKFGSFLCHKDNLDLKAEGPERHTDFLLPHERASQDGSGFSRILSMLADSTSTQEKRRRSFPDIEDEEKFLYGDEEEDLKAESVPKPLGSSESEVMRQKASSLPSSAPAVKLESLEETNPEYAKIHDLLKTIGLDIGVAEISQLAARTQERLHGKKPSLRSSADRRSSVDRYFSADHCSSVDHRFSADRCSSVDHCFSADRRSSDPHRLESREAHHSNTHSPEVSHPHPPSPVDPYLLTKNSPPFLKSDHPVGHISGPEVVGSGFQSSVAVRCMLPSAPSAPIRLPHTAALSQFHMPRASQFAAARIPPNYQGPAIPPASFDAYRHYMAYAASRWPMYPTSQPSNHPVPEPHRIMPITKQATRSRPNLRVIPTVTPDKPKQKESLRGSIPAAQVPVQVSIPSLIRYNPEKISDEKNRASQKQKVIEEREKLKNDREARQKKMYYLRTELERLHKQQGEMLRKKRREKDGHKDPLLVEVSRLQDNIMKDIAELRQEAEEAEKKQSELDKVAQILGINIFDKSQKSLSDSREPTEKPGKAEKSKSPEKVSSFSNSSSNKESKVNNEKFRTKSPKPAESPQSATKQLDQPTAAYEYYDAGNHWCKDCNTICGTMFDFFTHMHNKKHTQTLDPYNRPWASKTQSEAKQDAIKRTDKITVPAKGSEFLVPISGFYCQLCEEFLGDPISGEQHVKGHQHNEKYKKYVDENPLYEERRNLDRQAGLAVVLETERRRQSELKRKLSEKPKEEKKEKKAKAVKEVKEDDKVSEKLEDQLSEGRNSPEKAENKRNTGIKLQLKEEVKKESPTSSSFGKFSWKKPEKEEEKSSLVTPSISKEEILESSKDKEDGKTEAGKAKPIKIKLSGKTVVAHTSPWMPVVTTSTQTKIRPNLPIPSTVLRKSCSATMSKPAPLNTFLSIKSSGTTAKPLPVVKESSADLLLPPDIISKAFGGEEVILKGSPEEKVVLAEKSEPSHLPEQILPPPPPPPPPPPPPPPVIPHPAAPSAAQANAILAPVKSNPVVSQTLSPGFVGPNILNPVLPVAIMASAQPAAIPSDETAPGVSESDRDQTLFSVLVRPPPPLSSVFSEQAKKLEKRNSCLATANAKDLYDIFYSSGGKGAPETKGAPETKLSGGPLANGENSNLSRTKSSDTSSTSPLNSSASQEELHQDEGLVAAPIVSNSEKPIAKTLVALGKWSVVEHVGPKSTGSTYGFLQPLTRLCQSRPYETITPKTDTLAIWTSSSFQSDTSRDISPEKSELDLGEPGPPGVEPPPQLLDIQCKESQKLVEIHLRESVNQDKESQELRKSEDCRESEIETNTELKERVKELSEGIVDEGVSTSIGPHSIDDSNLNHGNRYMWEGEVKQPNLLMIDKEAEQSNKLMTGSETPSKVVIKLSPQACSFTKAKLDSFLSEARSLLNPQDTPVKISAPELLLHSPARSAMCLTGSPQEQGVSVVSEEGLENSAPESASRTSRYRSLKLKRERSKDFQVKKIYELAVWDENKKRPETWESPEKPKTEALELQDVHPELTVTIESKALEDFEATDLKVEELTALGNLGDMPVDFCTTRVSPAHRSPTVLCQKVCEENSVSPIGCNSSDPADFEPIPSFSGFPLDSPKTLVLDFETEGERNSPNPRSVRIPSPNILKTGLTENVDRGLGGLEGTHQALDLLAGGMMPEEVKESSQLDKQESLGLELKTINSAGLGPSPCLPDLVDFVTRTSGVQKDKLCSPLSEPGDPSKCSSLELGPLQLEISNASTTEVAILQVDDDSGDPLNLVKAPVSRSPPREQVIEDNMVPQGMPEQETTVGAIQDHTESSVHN
UniProt P52739: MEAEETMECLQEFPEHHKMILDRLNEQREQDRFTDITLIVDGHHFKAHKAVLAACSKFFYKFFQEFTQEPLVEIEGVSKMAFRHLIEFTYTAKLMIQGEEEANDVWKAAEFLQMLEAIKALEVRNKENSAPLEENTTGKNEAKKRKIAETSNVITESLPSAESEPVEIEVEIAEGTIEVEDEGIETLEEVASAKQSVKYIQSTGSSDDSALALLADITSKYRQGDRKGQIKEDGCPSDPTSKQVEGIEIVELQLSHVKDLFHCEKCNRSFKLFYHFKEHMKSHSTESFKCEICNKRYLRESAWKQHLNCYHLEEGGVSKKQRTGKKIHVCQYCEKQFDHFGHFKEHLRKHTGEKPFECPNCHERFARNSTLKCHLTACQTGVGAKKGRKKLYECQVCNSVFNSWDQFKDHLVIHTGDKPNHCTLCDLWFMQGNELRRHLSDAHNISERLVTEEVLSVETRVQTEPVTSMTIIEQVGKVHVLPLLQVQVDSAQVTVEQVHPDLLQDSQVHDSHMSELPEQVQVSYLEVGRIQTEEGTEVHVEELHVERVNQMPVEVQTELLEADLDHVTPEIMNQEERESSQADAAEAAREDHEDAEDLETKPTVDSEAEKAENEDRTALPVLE
UniProt Q96K83: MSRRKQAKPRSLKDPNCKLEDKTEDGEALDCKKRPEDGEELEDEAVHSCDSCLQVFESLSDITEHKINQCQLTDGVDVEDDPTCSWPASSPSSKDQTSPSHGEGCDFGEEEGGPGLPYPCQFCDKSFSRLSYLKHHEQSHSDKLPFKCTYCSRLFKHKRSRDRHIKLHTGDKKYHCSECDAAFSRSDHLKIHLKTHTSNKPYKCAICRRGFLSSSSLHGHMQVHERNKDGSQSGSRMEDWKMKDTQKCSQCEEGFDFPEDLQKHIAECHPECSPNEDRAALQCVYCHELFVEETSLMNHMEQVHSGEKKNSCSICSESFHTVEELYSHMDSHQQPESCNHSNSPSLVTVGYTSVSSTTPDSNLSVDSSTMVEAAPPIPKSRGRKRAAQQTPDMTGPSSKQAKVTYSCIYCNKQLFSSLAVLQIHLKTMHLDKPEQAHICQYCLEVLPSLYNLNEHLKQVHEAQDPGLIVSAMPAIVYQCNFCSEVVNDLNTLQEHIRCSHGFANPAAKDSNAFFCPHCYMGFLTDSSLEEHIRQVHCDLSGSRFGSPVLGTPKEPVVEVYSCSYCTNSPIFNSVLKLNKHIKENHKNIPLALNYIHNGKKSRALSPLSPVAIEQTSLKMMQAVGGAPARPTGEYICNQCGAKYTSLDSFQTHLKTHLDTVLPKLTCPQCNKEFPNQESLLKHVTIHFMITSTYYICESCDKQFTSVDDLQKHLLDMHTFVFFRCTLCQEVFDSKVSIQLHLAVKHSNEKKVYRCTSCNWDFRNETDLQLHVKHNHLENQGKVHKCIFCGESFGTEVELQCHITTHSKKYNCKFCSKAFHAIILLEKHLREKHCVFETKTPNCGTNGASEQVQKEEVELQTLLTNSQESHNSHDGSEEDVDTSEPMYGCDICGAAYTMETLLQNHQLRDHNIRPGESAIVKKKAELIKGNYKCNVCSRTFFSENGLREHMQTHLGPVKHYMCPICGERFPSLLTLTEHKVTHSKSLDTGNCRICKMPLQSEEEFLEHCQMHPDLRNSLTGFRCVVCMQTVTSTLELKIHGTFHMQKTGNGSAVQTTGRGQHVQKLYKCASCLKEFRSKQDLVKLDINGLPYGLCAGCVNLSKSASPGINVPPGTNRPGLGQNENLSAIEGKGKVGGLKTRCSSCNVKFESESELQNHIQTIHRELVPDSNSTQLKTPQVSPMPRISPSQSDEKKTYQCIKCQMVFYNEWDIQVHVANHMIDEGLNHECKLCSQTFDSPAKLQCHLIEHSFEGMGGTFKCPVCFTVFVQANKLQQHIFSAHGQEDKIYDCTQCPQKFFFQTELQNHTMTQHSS

Compound: CC1Cc2ccccc2N1C(=O)C1CCCN(C1)C(=O)CCl (mixture of isomers) [TRIM25 ligand 11 (diastereomer mixture)]
Experiment: probe-labelled cysteine peptide fold change vs DMSO (competition) (log2 fold change); higher = less target engagement (more negative = stronger competition)
Conditions: THP-1, incubation time: 4 h
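Note: competitive chemoproteomic profiling in live THP-1 cells with an iodoacetamide desthiobiotin (IA-DTB) probe, comparing probe-labelled peptide intensities in compound-treated cells against DMSO-treated controls.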

Target	probe-labelled cysteine peptide fold change (10 µM)	probe-labelled cysteine peptide fold change (50 µM)
ZFPL1_O95159_35_CIVQSYLQWLQDSDYNPNCR (UniProt O95159)	-0.0311	0.0264
ZFYVE21_Q9BQ24_138_VLLSGATFLVTFGNSEKPETMTCR (UniProt Q9BQ24)	-0.179	-0.169
ZNF691_Q5VV52_230_THLEPAPYICCECGK (UniProt Q5VV52)	-0.272	-0.8
ZFAND2B_Q8WV99_84_AVGEHIDRDCR (UniProt Q8WV99)	-0.306	-0.325
ZMYM2_Q9UBW7_612_LYNFCNSSCVAK (UniProt Q9UBW7)	0.012	-0.00405
ZNF618_Q5T7W0_635+638_CSACALNSVVQSVLSK (UniProt Q5T7W0)	-0.0375	-0.117
ZNF318_Q5VUA4_1363_SCSATMSK (UniProt Q5VUA4)	-0.0388	-0.195
ZNF451_Q9Y4E5_461_SHEGVACVQK (UniProt Q9Y4E5)	-0.00533	-0.176
ZNF592_Q92610_175_HSDSYFPPPLGCGAVGGPVLEALAK (UniProt Q92610)	-0.087	-0.113
ZNF408_Q9H9D4_383_HAFVHTGHKPFLCTECGK (UniProt Q9H9D4)	0.107	0.293
ZNF622_Q969S3_69+72_GSATYCTVCSK (UniProt Q969S3)	0.0869	0.123
ZNF131_P52739_235_EDGCPSDPTSK (UniProt P52739)	-0.0892	-0.122
ZNF644_Q9H582_202_KLPTSASVGCDIQNSVGSNIK (UniProt Q9H582)	-0.0287	-0.187
ZNF521_Q96K83_537_QVHCDLSGSR (UniProt Q96K83)	0.031	-0.0659

Look-ups from the list:
ZFPL1_O95159_35_CIVQSYLQWLQDSDYNPNCR (UniProt O95159) | probe-labelled cysteine peptide fold change (10 µM): -0.0311
ZFYVE21_Q9BQ24_138_VLLSGATFLVTFGNSEKPETMTCR (UniProt Q9BQ24) | probe-labelled cysteine peptide fold change (10 µM): -0.179
